## Assay results

From PubChem BioAssay record AID1053133 (Broad Institute, 2014).

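Plate-reader measure of the Venus reporter marking one vaccinia stage in infected cells (the cell line is not named here); read time unknown.
The test concentration is not given here.
Percent change in Venus reporter signal; lower (more negative) values mean stronger inhibition of that viral stage.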

Values are in %.
How 0% and 100% were set is not given here.
Common to all entries: measured here: Venus reporter, other viral stage.
Part of the compounds only, not a random draw; the main read-out is not listed here.

{"compound": "C[C@H]1CN([C@@H](C)CO)C(=O)c2c(c3ccccc3n2C)-c2ccccc2CO[C@H]1CN(C)S(=O)(=O)c1ccc(F)cc1", "activity change (Venus) (%)": "-82.39"}
{"compound": "O=C(C1CC1)N1CC(=O)N2[C@H](CO)[C@@H](c3ccc(C#Cc4cccc(F)c4)cc3)[C@H]2C1", "activity change (Venus) (%)": "-37.79"}
{"compound": "COc1ccccc1CNC(=O)C[C@H]1C[C@@H]2c3cc(NC(=O)c4ccc5c(c4)OCO5)ccc3O[C@@H]2[C@@H](CO)O1", "activity change (Venus) (%)": "-48.06"}
{"compound": "COc1ccccc1C#Cc1ccc([C@@H]2[C@@H](CO)N3CCCCN(CCC(F)(F)F)C[C@@H]23)cc1", "activity change (Venus) (%)": "-66.98"}
{"compound": "C[C@@H]1CCCCO[C@@H](CN(C)Cc2ccc(Cl)c(Cl)c2)[C@H](C)CN([C@@H](C)CO)C(=O)c2cc(NC(=O)C3CCCCC3)ccc2O1", "activity change (Venus) (%)": "-33.34"}
{"compound": "CC(C)CC#Cc1ccc2c(c1)O[C@@H](CN(C)C(=O)Cc1ccncc1)[C@H](C)CN([C@H](C)CO)S2(=O)=O", "activity change (Venus) (%)": "-33.29"}
{"compound": "O=C(Nc1ccccc1)N1CC(=O)N2[C@H](CO)[C@@H](c3ccc(C#CC4CCCCC4)cc3)[C@H]2C1", "activity change (Venus) (%)": "-42.52"}
{"compound": "C[C@H]1CN([C@@H](C)CO)C(=O)c2cc(C#Cc3ccccc3F)cnc2O[C@@H]1CN(C)C(=O)C1CCCCC1", "activity change (Venus) (%)": "-58.41"}
{"compound": "C[C@H](CO)N1C[C@H](C)[C@H](CN(C)Cc2ccc(C(F)(F)F)cc2)Oc2c(NC(=O)Nc3ccc(F)cc3)cccc2C1=O", "activity change (Venus) (%)": "-33.65"}
{"compound": "CC(C)NC(=O)Nc1ccc2c(c1)CC(=O)N([C@@H](C)CO)C[C@H](C)[C@H](CN(C)Cc1ccc(-c3ccccc3)cc1)O2", "activity change (Venus) (%)": "-28.05"}
{"compound": "C[C@H]1CCCCO[C@@H](CN(C)S(=O)(=O)c2ccc(F)cc2)[C@@H](C)CN([C@@H](C)CO)C(=O)c2cc(NC(=O)C3CCCCC3)ccc2O1", "activity change (Venus) (%)": "-32.87"}
{"compound": "COc1ccc(S(=O)(=O)N(C)C[C@H]2OCc3ccccc3-c3c(n(C)c4ccccc34)C(=O)N([C@@H](C)CO)C[C@@H]2C)cc1", "activity change (Venus) (%)": "-52.12"}
{"compound": "O=C(Nc1ccccc1F)N1CCCCN2[C@H](CO)[C@@H](c3ccc(C#Cc4ccccc4)cc3)[C@H]2C1", "activity change (Venus) (%)": "-50.2"}
{"compound": "C[C@H]1CN([C@@H](C)CO)C(=O)Cc2cc(NC(=O)Nc3ccc(F)cc3)ccc2O[C@H]1CN(C)Cc1ccc(C(F)(F)F)cc1", "activity change (Venus) (%)": "-49.07"}
{"compound": "Cc1ccccc1-c1ccc([C@H]2[C@@H](CO)N3CCCCN(C(=O)Nc4cccc(F)c4)C[C@@H]23)cc1", "activity change (Venus) (%)": "-33.46"}
{"compound": "CCCC#Cc1ccc([C@@H]2[C@@H](CO)N3C(=O)CN(S(=O)(=O)c4ccccc4C)C[C@H]23)cc1", "activity change (Venus) (%)": "-29.88"}
{"compound": "C[C@H](CO)N1C[C@H](C)[C@H](CN(C)S(=O)(=O)c2cccs2)Oc2ccc(NS(=O)(=O)c3ccc(Cl)cc3)cc2C1=O", "activity change (Venus) (%)": "-26.78"}
{"compound": "C[C@@H]1CN([C@H](C)CO)S(=O)(=O)c2ccc(C#CC(C)(C)O)cc2O[C@@H]1CN(C)Cc1ccc(-c2ccccc2)cc1", "activity change (Venus) (%)": "-76.22"}
{"compound": "COc1ccc(S(=O)(=O)N(C)C[C@H]2Oc3ncc(/C=C/c4ccccc4)cc3C(=O)N([C@@H](C)CO)C[C@@H]2C)cc1", "activity change (Venus) (%)": "-32.09"}
{"compound": "C[C@@H]1CN([C@H](C)CO)C(=O)c2cc(C#CC3CCCCC3)cnc2O[C@@H]1CN(C)S(=O)(=O)c1cccc(F)c1", "activity change (Venus) (%)": "-35.3"}
{"compound": "Cc1ccc(S(=O)(=O)Nc2ccc3c(c2)C(=O)N([C@@H](C)CO)C[C@@H](C)[C@@H](CN(C)Cc2ccc(C(F)(F)F)cc2)OCCCC[C@@H](C)O3)cc1", "activity change (Venus) (%)": "-73.11"}
{"compound": "COc1cccc(NC(=O)N(C)C[C@@H]2Oc3cc(-c4ccccc4F)ccc3S(=O)(=O)N([C@@H](C)CO)C[C@@H]2C)c1", "activity change (Venus) (%)": "-33.55"}